Results: PMC10403576
These are yes or no findings as the source states them, for the method shown. Some binding calls cover weakened binding; strength is not graded here.

Protein sequences, listed by entry. Tags and fused reporters are not part of them. Residues count along the entry.
UniProt P09192, residues 2-330: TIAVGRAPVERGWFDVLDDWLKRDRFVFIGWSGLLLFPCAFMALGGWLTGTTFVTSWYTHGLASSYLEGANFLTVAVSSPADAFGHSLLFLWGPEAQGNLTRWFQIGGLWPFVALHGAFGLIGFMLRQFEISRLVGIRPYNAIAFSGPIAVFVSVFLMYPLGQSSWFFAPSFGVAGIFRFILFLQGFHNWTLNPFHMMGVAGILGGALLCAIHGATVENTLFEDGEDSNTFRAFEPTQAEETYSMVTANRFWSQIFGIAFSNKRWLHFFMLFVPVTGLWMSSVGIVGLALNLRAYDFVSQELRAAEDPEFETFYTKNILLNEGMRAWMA
UniProt P29255: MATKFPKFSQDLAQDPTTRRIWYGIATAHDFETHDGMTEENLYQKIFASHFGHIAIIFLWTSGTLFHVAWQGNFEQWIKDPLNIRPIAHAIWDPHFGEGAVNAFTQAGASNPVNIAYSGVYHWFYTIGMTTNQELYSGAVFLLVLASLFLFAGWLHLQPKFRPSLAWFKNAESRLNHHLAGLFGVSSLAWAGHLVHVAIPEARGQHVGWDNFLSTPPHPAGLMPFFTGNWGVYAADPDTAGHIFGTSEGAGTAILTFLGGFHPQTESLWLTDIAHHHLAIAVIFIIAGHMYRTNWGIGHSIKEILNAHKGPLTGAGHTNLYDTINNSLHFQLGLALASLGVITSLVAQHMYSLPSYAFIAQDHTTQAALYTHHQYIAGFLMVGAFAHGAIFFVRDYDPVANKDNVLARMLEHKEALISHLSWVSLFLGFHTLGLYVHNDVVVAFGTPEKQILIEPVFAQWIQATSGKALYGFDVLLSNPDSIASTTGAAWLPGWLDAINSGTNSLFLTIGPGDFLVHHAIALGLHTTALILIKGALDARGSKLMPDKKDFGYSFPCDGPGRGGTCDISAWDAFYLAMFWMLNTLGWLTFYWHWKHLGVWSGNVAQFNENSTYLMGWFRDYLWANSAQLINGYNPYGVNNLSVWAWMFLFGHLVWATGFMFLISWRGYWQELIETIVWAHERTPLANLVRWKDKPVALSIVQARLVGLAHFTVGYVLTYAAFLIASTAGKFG

Key:
[1] = target: His-tagged D2 reaction center subunit of PSII (Synechocystis sp. PCC 6803) (UniProt P09192); assay: cryo-EM structure; RCII/PSI complex co-purified from Synechocystis via His-tagged D2; 0.1% FOM; two classes at 3.2 Å and 3.1 Å, PSI-focused map at 2.9 Å; both purified
[2] = target: PsaB RC subunit of PSI (Synechocystis sp. PCC 6803) (UniProt P29255); assay: as above

B1: Ycf48 accessory factor (protein, UniProt P73069 29-342)
chain: CSHVPDLAFNPWQEIALETDSTFADIAFTEDPNHGWLVGTKETIFETTDGGDTWEQKLIDLGEEKASFSAVSFSGNEGWITGKPSILLHTTDGGQTWARIPLSEKLPGAPYSIIALGPQTAEMITDLGAIYKTTNGGKNWKALVEGAVGVARTIQRSTDGRYVAVSARGNFYSTWAPGQTEWTPHNRNSSRRLQTMGYGKDGQLWLLARGGQLQFSTDPDAEEWSDVIAPQDKGSWGLLDLSFRTPEEVWVAGASGNLLMSQDGGQTWAKDTGVEDIPANLYRVVFLSPEKGFVLGQDGILLKYNPSTEVAMVP
modifications: lipidation of the Ycf48-Cys29 N-terminal residue
binding [1]: binds | binding [2]: binds
